Test [1] concerns the target mL62-FLAG (mouse) (UniProt Q8R035). The experiment in a line: affinity purification with mass spectrometry; mL62-FLAG co-immunoprecipitated on anti-FLAG M2 beads from 1% digitonin lysates of heart, liver and kidney mitochondria of MitoRibo-Tag mice, WT mice as control; 10 mM Tris-HCl pH 7.5, 100 mM KCl, 20 mM MgCl2; on-bead trypsin elution; LFQ-MS/MS.
Test [2] has the same target. The test can be described thus: affinity purification with mass spectrometry; mL62-FLAG co-immunoprecipitated from digitonin lysates of heart mitochondria of 18- to 20-week-old Mterf4 knockout MitoRibo-Tag mice (L/L, +/Cre, T/T) versus control MitoRibo-Tag mice (L/L, +/+, T/T); LFQ-MS/MS.

Protein sequences, listed by entry. Tags and fused reporters are not part of them. Residues count along the entry.
UniProt Q8R035, residues 30-206: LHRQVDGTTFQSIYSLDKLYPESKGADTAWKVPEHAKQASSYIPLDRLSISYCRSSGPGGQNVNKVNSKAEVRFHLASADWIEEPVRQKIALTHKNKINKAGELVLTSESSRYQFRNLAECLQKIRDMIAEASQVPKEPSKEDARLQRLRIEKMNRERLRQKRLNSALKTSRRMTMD
UniProt Q91YJ5, residues 30-727: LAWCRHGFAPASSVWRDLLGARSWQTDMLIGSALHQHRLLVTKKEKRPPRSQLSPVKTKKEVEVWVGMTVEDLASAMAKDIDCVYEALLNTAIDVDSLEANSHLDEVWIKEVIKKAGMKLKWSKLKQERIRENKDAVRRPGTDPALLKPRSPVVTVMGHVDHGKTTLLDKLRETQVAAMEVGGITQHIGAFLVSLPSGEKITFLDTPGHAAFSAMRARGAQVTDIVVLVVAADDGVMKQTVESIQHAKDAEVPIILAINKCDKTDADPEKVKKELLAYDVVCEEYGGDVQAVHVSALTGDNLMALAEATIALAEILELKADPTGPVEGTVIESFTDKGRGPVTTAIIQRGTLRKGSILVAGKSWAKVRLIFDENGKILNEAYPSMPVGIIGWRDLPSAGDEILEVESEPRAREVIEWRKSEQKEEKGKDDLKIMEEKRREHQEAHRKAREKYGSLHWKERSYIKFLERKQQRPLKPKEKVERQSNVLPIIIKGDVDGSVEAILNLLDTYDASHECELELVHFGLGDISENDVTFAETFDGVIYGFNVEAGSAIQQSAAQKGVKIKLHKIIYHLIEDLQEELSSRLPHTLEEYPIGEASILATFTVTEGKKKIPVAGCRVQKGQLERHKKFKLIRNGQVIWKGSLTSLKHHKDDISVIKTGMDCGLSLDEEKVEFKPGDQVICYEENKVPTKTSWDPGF
UniProt Q9CWV0: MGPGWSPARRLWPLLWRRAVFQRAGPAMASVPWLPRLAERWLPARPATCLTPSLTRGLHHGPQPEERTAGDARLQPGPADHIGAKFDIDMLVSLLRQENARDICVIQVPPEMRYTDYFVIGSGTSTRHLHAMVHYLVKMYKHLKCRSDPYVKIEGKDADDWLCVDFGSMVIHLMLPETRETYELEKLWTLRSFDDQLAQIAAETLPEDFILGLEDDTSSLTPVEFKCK

No constants are given. Whether binding was seen depends on the method and setting. In cells and extracts the contact can be indirect. These calls come from enrichment with a bait or labelling near it, and not all partners need be listed. For some assays here: A no says only that the protein was not detected with the bait.

The values that follow come from article PMC6859486.

Consider “mitochondrial translation initiation factor IF2mt (from UniProt Q91YJ5 30-727)”, for which the binding entry with mL62-FLAG (mouse) [1] and with mL62-FLAG (mouse) [2] was “binds” throughout.

Take “mitochondrial assembly of ribosomal large subunit 1 (from UniProt Q9CWV0 1-228)”: the binding entry in the test with mL62-FLAG (mouse) [1] and in the test with mL62-FLAG (mouse) [2] was “binds” in each case.

B1: mitochondrial rRNA methyltransferase MRM3 (protein, UniProt Q5ND52 41-418)
chain: LSPSGQVEERKRAPDQQPRKAVPKASSQGQRQKQPLETSPSQTPHTWEEAGLRYDKAFPGDRRLSSVMTIVKSRPFREKQGKILLEGRRLIADALKAGAVPKAFFFSRLEYVKELPVDKLKDVSLIKVKFEDIKDWSDLVTPQGIMGIFAKPDPVKMTYPETPLHHTLPLVLICDNLRDPGNLGTILRSAAGAGCSKVLLTKGCVDAWEPKVLRAGMGAHFQVPIVNNVEWETVPNHLPPDTRVYVADNCGHYAQVQMSDKTGDRDWACDRRFLKFHKYEEDLDTKTRKDWLPKLEVQSYDLDWTGAPAAVVIGGETHGVSLESLQLAESTGGKRLLIPVVPGVDSLNSAMAASILLFEGKRQLRIKVEDLSRDRSYH
In the case of B1, the binding result in the test with mL62-FLAG (mouse) [1] and in the test with mL62-FLAG (mouse) [2] was “binds” each time.

B2: RNA pseudouridylate synthase domain-containing protein 4 (protein, UniProt Q9CWX4 47-377)
chain: AEKLRAQKQEQKAKEVRVPTNPVQRRVQELVRFTQQLQRVHPNVLAKELSRRILHQDNDLVVINKPYGLPVHGGPGVQLCISDVLPILAKMLHGHKAEPLHLCHRLDKETTGVMVLAWEKDMAHQVQELFRTRQVEKKYWAITVRVPLPSAGVVDIPIKEKEVQGPQQHHKMTLSPSYRLDNGKMVKVRASRDAHVAVTQYQVLSSASSSALVELQPVTGIKHQLRVHLSFGLDCPILGDHKYSDWTRLAPQKLSAGTLKKLGLQQSKARYIPLHLHARQLILPALGSRTEELLLTCKLPHFFARSLLRLGLDMPNQDQSRGNKARHVEAR
On to B2, for which the binding result with mL62-FLAG (mouse) [1] and in the test with mL62-FLAG (mouse) [2] was “binds” in each case.

B3: MTHFD2 (enzyme, UniProt P18155 36-350)
chain: EAVVISGRKLAQQIKQEVQQEVEEWVASGNKRPHLSVILVGDNPASHSYVLNKTRAAAEVGINSETIVKPASVSEEELLNSIRKLNNDENVDGLLVQLPLPEHIDERKVCNAVSPDKDVDGFHVINVGRMCLDQYSMLPATPWGVWEIIKRTGIPTLGKNVVVAGRSKNVGMPIAMLLHTDGAHERPGGDATVTISHRYTPKEQLKKHTILADIVISAAGIPNLITADMIKEGAAVIDVGINRVQDPVTAKPKLVGDVDFEGVKKKAGYITPVPGGVGPMTVAMLMKNTIIAAKKVLRPEELEVFKSKQRGVATN
In the case of B3, in the test with mL62-FLAG (mouse) [2], the binding result is recorded as “no binding”.

B4: DEAD-box RNA helicase 28 (protein, UniProt Q9CWT6 1-540)
chain: MALAGPSRLLALAVRLLLEPRRNLVVRGSDQSLPVVRVPRALQRRQEQRQSGRGSLQRPVLVRPGPLLVSARRPELNQPARLTLGRWERAPLASRGWKHRRSRQDHFSIERVQQEAPALRNLSSRGSFVDLGLEPRVLLALQEAVPEVVQPTSVQSKTIPPLLRGRHLLCAAETGSGKTLSYLLPLFQRLLRGSDLDSRSFTAPRGLVLVPSRELAEQVQAVAQSLGGYLGLQVIELGGGLGMSRLKLQLYRRPAADVLVATPGALWKALKSQLISLQHLNFIVLDEVDTLLDESFLELVDYILEKSPIAESPAELEDPFNPKAQLVLVGATFPEGLNQLLSKVTSPDSLTTITSSKLHCLMPHVRQTFMRLKGADKVTELVQILKQQDKASKTEPSGTVLVFCNSASTVNWLGYILDDHKIQHLRLQGQMPASMRAGIFQSFQKGSQNILVCTDIASRGLDSVHVEVVINYDFPPTLQDYIHRAGRVGRVGSEVPGSVISFVTHPWDVSLVQKIELAARRRRSLPGLASSVGDPLPQKA
B4: the binding result with mL62-FLAG (mouse) [1] and in the test with mL62-FLAG (mouse) [2] was “binds” in each case.
